{
  "source": "paper doi:10.1101/572826",
  "key": {"[1]": {"target": "3xFLAG-HvEDS1 (pAtEDS1:3xFLAG-HvEDS1) (barley (Hordeum vulgare))", "assay": "co-IP"}, "[2]": {"target": "3xFLAG-SlEDS1 (pAtEDS1:3xFLAG-SlEDS1) (tomato (Solanum lycopersicum))", "assay": "co-IP"}, "[3]": {"target": "potato PAD4 (StPAD4), LexA BD fusion for yeast two-hybrid (potato (Solanum tuberosum))", "assay": "two-hybrid"}, "[4]": {"target": "tomato PAD4 (SlPAD4), LexA BD fusion for yeast two-hybrid (tomato (Solanum lycopersicum))", "assay": "two-hybrid"}},
  "note": "These are yes or no findings as the source states them, for the method shown. For some of these results: In cells and extracts the contact can be indirect. For some of these results: Binding can be weak; no strength is given. Sequences can lack the tags named with a protein.",
  "data": [
    {"binder": "YFP-AtPAD4 (pAtPAD4:YFP-AtPAD4) (protein, UniProt Q9S745 1-541) MDDCRFETSELQASVMISTPLFTDSWSSCNTANCNGSIKIHDIAGITYVAIPAVSMIQLGNLVGLPVTGDVLFPGLSSDEPLPMVDAAILKLFLQLKIKEGLELELLGKKLVVITGHSTGGALAAFTALWLLSQSSPPSFRVFCITFGSPLLGNQSLSTSISRSRLAHNFCHVVSIHDLVPRSSNEQFWPFGTYLFCSDKGGVCLDNAGSVRLMFNILNTTATQNTEEHQRYGHYVFTLSHMFLKSRSFLGGSIPDNSYQAGVALAVEALGFSNDDTSGVLVKECIETATRIVRAPILRSAELANELASVLPARLEIQWYKDRCDASEEQLGYYDFFKRYSLKRDFKVNMSRIRLAKFWDTVIKMVETNELPFDFHLGKKWIYASQFYQLLAEPLDIANFYKNRDIKTGGHYLEGNRPKRYEVIDKWQKGVKVPEECVRSRYASTTQDTCFWAKLEQAKEWLDEARKESSDPQRRSLLREKIVPFESYANTLVTKKEVSLDVKAKNSSYSVWEANLKEFKCKMGYENEIEMVVDESDAMET", "values": [
      {"measurement": "binding", "setting": "[1]", "value": "no binding"},
      {"measurement": "binding", "setting": "[2]", "value": "binds"}
    ]},
    {"binder": "Arabidopsis EDS1 (AtEDS1), Gal4 AD fusion for yeast two-hybrid (protein, UniProt Q9XF23 1-623) MAFEALTGINGDLITRSWSASKQAYLTERYHKEEAGAVVIFAFQPSFSEKDFFDPDNKSSFGEIKLNRVQFPCMRKIGKGDVATVNEAFLKNLEAVIDPRTSFQASVEMAVRSRKQIVFTGHSSGGATAILATVWYLEKYFIRNPNVYLEPRCVTFGAPLVGDSIFSHALGREKWSRFFVNFVTRFDIVPRITLARKASVEETLPHVLAQLDPRNSSVQESEQRITEFYTSVMRDTSTVANQAVCELTGSAEAILETLSSFLELSPYRPAGTFVFSTEKRLVAVNNSDAILQMLFYTCQASDEQEWSLIPFRSIRDHHSYEELVQSMGMKLFNHLDGENSIESSLNDLGVSTRGRQYVQAALEEEKKRVENQKKIIQVIQQERFLKKLAWIEDEYKPKCQAHKNGYYDSFKVSNEENDFKANVKRAELAGVFDEVLGLLKKCQLPDEFEGDIDWIKLATRYRRLVEPLDIANYHRHLKNEDTGPYMKRGRPTRYIYAQRGYEHHILKPNGMIAEDVFWNKVNGLNLGLQLEEIQETLKNSGSECGSCFWAEVEELKGKPYEEVEVRVKTLEGMLREWITAGEVDEKEIFLEGSTFRKWWITLPKNHKSHSPLRDYMMDEITDT", "values": [
      {"measurement": "binding", "setting": "[3]", "value": "no binding"},
      {"measurement": "binding", "setting": "[4]", "value": "no binding"}
    ]}
  ]
}
